These are yes or no findings as the source states them, for the method shown. Tags and fused reporters may be left off the sequences shown.
Legend:
[1] = biological target: HPVE6 (false bait) (HPV, type not stated); test: yeast two-hybrid
[2] = biological target: HPVE7 (false bait) (HPV, type not stated); test: yeast two-hybrid

Question: With LYETILILLFLDVDTG as the binder, how does the binding [1] read?
Answer: Its binding is “no binding”.

Question: What about the binding [2] of the same binder?
Answer: The binding was “no binding”.

From patent US20120094896A1
